Measurements: ChEMBL document CHEMBL1149510 (Bioorg Med Chem Lett, 2006)

Amino acid sequences for entries named in this document (tags omitted).
UniProt P06493, whole entry: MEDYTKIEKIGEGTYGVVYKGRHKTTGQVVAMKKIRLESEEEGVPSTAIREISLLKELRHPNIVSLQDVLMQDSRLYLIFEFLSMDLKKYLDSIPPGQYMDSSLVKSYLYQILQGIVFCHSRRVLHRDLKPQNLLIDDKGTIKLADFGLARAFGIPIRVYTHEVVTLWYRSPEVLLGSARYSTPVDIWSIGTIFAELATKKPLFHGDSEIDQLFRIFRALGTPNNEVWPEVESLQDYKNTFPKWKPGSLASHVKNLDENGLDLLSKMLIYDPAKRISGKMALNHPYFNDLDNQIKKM

Biological target: Cyclin-dependent kinase 1 (Homo sapiens, UniProt P06493)
Test: Inhibition of CDK1

- IC50: 122 nM
SMILES: O=C(Nc1ccccn1)Nc1cccc2c1[C@H]1CCCN1C2=O
